Source: PMC11780537
No constants are given. Whether binding was seen depends on the method and setting. In cells and extracts the contact can be indirect. Some entries that bind do so weakly or less than the wild type.

By UniProt entry, the sequences of proteins in these tests, tags left out.
UniProt P52332: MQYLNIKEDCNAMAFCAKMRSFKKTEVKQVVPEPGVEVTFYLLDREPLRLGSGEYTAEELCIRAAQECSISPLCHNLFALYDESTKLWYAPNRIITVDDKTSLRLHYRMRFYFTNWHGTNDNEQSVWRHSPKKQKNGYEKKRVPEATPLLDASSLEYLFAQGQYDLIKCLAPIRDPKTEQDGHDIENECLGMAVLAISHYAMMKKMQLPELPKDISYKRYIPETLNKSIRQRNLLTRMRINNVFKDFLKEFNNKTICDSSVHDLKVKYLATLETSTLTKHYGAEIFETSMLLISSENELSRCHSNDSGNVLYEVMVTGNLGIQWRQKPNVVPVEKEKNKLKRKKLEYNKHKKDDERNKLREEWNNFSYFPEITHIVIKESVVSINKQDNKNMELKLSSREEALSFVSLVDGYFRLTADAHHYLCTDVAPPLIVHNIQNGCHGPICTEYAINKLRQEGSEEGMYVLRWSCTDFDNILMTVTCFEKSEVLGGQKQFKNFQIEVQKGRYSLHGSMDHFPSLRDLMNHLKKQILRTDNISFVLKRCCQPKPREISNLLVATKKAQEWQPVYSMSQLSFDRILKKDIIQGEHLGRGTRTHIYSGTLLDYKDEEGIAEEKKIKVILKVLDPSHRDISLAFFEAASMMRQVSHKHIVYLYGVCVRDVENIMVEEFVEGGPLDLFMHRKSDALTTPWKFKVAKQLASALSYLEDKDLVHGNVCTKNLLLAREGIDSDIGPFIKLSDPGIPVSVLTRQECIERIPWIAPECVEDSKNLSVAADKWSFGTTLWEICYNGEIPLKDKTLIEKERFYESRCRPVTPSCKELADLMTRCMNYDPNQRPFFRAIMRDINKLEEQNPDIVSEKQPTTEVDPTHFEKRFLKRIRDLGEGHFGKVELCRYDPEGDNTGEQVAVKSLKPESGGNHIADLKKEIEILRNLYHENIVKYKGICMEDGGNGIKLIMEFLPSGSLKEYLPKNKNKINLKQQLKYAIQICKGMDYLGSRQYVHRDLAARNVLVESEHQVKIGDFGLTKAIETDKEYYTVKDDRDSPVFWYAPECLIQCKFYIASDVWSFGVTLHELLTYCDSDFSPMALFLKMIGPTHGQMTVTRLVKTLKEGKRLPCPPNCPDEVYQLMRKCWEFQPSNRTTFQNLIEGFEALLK

T1: MYSM1 (Co-IP with JAK1 and SHP2, Figure S5B-C) (UniProt Q69Z66)
T1 sequence: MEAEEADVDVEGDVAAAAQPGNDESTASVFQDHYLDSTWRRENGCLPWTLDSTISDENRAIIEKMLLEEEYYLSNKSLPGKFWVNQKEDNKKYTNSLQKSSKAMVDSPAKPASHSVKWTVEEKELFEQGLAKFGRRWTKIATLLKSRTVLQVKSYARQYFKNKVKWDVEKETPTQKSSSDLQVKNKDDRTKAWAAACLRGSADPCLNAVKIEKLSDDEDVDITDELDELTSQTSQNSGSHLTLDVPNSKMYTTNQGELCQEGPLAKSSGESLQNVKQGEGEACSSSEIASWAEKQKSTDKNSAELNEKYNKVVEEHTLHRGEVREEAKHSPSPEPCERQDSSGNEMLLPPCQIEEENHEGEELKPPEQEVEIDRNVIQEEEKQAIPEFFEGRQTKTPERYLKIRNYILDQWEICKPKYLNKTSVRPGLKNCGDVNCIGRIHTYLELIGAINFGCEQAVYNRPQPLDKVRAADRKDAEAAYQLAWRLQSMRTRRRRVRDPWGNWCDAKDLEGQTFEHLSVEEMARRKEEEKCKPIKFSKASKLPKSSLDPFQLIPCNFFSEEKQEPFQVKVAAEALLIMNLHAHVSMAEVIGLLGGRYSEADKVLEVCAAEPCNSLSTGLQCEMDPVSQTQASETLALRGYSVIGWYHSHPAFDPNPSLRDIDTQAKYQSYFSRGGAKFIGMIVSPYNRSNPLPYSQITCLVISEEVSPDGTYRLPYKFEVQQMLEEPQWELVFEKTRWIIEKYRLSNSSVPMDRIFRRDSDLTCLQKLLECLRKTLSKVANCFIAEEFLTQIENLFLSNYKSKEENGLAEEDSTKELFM

T2: signal transducer and activator of transcription 1 (STAT1), endogenous (mouse (endogenous in mouse heart and HL-1)) (UniProt P42225)
T2 sequence: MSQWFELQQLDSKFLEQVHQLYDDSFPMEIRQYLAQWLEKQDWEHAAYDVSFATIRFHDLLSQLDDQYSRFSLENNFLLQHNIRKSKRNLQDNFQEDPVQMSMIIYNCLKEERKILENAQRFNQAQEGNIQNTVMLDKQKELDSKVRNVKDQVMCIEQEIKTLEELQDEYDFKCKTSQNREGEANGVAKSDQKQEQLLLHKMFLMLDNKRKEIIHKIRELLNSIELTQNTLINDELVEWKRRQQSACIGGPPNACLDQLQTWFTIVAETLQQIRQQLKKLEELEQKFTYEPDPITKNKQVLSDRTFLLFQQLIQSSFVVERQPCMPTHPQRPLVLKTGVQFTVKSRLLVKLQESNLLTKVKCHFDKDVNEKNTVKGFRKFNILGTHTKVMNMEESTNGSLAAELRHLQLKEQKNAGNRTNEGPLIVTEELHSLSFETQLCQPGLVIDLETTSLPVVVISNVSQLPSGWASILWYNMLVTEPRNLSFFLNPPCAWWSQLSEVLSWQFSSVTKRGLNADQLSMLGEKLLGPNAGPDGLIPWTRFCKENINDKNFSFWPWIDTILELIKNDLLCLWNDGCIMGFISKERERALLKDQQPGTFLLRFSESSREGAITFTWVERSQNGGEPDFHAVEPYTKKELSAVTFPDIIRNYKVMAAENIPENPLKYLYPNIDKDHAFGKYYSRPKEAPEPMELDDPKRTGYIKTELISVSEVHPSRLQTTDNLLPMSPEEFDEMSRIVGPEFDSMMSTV


Tests used:
[1] = molecular target: T1, MYSM1 (Co-IP with JAK1 and SHP2, Figure S5B-C); assay: co-IP; Co-IP of MYSM1 with JAK1 or SHP2 (Figure S5B-C); cells, bait and antibodies not told in the text shown
[2] = molecular target: T2, signal transducer and activator of transcription 1 (STAT1), endogenous (mouse (endogenous in mouse heart and HL-1)); assay: co-IP; H/R-induced HL-1 cells; immunoprecipitation with anti-STAT1 antibody, endogenous MYSM1 detected by blot
[3] = molecular target: T2, signal transducer and activator of transcription 1 (STAT1), endogenous (mouse (endogenous in mouse heart and HL-1)); assay: co-IP; mouse heart tissue with myocardial I/R injury; immunoprecipitation with anti-STAT1 antibody, endogenous MYSM1 detected by blot

Row | binding [1] | binding [2] | Molecule | binding [3]
1 | no binding |  | JAK1 (from UniProt P52332 1-1153) (enzyme) | 
2 |  | binds | Myb-like, SWIRM, and MPN domains 1 protein (MYSM1), endogenous (enzyme, UniProt Q69Z66 1-819) MEAEEADVDVEGDVAAAAQPGNDESTASVFQDHYLDSTWRRENGCLPWTLDSTISDENRAIIEKMLLEEEYYLSNKSLPGKFWVNQKEDNKKYTNSLQKSSKAMVDSPAKPASHSVKWTVEEKELFEQGLAKFGRRWTKIATLLKSRTVLQVKSYARQYFKNKVKWDVEKETPTQKSSSDLQVKNKDDRTKAWAAACLRGSADPCLNAVKIEKLSDDEDVDITDELDELTSQTSQNSGSHLTLDVPNSKMYTTNQGELCQEGPLAKSSGESLQNVKQGEGEACSSSEIASWAEKQKSTDKNSAELNEKYNKVVEEHTLHRGEVREEAKHSPSPEPCERQDSSGNEMLLPPCQIEEENHEGEELKPPEQEVEIDRNVIQEEEKQAIPEFFEGRQTKTPERYLKIRNYILDQWEICKPKYLNKTSVRPGLKNCGDVNCIGRIHTYLELIGAINFGCEQAVYNRPQPLDKVRAADRKDAEAAYQLAWRLQSMRTRRRRVRDPWGNWCDAKDLEGQTFEHLSVEEMARRKEEEKCKPIKFSKASKLPKSSLDPFQLIPCNFFSEEKQEPFQVKVAAEALLIMNLHAHVSMAEVIGLLGGRYSEADKVLEVCAAEPCNSLSTGLQCEMDPVSQTQASETLALRGYSVIGWYHSHPAFDPNPSLRDIDTQAKYQSYFSRGGAKFIGMIVSPYNRSNPLPYSQITCLVISEEVSPDGTYRLPYKFEVQQMLEEPQWELVFEKTRWIIEKYRLSNSSVPMDRIFRRDSDLTCLQKLLECLRKTLSKVANCFIAEEFLTQIENLFLSNYKSKEENGLAEEDSTKELFM | binds
